# Assay results from PMC10562424.
# By UniProt entry, the sequences of proteins in these tests, tags left out.
# UniProt Q8N371: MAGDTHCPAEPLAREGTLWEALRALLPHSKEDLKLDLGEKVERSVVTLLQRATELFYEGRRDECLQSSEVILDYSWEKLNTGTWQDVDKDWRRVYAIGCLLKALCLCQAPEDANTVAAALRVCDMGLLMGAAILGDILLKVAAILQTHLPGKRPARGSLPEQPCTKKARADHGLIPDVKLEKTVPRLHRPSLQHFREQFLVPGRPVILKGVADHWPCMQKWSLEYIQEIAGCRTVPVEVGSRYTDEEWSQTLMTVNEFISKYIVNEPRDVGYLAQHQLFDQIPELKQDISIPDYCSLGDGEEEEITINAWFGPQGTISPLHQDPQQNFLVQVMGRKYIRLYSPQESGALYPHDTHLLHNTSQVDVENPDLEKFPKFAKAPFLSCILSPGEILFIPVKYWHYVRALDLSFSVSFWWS
# UniProt Q7Z6Z7: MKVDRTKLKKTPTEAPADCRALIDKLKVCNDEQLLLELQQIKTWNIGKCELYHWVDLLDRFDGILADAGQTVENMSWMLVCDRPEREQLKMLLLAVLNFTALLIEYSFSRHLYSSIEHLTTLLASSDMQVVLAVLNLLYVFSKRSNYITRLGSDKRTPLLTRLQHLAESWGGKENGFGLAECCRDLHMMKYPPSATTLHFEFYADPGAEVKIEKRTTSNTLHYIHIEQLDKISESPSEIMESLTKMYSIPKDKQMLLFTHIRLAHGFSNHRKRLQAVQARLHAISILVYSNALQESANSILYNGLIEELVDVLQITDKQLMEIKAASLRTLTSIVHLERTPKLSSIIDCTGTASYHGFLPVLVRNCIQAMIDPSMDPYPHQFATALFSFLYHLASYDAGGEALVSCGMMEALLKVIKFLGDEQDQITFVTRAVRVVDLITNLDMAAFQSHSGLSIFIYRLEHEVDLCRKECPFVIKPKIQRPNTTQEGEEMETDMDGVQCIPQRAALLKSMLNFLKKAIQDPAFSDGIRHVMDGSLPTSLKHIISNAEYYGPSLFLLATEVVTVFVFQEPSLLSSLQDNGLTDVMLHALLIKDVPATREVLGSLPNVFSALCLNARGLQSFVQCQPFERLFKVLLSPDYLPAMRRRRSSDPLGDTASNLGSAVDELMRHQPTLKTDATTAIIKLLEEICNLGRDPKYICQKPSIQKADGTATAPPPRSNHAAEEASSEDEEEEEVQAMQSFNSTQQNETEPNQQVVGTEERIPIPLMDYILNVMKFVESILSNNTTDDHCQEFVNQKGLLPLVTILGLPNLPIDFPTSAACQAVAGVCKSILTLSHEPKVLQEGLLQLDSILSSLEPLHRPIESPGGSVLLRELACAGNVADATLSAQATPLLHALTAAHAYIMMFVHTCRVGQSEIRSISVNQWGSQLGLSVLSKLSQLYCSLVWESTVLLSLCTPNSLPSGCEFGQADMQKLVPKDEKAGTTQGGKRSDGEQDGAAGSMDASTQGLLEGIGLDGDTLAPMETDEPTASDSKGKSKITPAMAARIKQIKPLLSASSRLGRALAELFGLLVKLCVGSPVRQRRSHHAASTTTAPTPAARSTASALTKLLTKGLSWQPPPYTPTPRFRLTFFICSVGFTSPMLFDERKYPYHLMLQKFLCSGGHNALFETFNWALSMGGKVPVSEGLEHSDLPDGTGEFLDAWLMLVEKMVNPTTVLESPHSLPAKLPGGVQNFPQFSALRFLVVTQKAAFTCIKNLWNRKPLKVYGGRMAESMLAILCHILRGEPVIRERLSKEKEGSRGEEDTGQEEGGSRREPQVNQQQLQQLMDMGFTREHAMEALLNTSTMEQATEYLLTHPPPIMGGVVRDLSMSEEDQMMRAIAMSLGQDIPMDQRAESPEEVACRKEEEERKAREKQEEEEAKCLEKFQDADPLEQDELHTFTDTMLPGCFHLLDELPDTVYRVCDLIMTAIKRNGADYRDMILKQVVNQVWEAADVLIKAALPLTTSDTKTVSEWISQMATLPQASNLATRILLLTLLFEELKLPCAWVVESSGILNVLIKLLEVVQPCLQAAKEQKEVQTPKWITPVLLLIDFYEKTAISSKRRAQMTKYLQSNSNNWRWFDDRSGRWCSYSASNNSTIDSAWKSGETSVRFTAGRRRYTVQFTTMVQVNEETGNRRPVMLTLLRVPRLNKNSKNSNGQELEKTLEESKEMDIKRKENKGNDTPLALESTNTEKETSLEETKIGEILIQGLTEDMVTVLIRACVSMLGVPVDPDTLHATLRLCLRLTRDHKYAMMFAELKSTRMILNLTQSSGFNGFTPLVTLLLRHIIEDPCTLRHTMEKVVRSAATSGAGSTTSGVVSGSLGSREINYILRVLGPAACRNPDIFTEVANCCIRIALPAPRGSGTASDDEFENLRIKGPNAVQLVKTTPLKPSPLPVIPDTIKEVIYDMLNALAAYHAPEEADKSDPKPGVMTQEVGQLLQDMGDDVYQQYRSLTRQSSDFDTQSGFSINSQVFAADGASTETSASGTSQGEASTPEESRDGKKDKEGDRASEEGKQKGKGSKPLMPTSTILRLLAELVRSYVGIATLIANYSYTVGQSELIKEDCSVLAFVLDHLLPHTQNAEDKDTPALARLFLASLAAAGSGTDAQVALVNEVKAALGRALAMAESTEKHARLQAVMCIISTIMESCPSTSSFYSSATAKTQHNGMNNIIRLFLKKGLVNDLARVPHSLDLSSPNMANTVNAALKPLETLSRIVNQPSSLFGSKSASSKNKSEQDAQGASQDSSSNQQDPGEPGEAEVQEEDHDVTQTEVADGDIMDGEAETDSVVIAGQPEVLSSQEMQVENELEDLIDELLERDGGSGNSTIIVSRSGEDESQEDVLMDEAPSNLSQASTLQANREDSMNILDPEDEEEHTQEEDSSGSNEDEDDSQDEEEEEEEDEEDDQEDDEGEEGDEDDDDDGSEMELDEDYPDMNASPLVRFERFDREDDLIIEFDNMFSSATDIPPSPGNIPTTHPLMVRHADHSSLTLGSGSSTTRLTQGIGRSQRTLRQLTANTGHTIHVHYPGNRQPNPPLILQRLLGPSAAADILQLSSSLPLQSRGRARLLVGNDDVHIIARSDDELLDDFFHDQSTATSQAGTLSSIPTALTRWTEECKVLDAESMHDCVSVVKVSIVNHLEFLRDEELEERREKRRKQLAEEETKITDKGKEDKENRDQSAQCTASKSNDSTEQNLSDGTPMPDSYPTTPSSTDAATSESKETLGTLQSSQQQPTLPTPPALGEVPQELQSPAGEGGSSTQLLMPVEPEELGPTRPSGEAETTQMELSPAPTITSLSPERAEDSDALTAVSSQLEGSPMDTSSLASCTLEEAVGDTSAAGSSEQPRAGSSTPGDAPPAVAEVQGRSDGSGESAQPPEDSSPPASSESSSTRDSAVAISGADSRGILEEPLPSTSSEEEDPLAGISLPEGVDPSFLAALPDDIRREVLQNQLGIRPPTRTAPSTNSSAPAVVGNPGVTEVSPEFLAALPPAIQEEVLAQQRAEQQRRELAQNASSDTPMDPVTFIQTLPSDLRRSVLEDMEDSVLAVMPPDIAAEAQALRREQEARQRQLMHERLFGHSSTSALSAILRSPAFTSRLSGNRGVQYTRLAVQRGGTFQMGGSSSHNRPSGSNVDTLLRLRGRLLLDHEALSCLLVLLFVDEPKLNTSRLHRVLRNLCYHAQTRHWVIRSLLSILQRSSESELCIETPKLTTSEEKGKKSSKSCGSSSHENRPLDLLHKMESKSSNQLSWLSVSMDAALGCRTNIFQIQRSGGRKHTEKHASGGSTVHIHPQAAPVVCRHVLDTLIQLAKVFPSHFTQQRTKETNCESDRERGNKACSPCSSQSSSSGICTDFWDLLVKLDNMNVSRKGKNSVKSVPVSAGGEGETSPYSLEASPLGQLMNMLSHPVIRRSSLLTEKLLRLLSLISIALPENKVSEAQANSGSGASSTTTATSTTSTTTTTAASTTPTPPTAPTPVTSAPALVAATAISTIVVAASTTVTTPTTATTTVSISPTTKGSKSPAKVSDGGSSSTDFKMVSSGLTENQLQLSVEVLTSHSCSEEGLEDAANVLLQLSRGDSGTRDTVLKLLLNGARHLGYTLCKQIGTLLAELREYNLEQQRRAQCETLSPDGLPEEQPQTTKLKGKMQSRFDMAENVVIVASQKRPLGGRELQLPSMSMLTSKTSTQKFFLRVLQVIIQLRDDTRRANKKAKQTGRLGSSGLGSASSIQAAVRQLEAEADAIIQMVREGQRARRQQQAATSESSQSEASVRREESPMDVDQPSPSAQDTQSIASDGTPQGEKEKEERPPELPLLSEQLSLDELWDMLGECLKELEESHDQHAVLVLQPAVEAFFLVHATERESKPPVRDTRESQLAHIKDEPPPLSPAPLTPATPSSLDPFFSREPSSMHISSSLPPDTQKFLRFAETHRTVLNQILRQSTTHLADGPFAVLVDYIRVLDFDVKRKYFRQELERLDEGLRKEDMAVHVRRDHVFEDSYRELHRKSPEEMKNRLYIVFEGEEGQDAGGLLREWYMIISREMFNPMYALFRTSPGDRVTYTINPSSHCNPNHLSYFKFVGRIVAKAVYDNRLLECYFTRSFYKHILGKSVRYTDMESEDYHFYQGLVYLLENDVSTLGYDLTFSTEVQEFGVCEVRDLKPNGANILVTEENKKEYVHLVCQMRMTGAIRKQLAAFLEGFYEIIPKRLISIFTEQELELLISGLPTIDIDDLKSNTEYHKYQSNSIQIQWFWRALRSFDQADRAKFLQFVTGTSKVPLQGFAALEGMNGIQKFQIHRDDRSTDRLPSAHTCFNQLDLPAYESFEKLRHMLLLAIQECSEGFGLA
# Target: JmjC domain-containing 5 (JMJD5), bait of the mass spectrometry-based proteomic analysis (human) (UniProt Q8N371)
# Assay: affinity purification with mass spectrometry; mass spectrometry-based proteomic analysis of JMJD5-associated proteins; bait, cells and conditions not told
substance,measurement,value
"HECT-domain E3 ligase HUWE1, found with JMJD5 by mass spectrometry (from UniProt Q7Z6Z7 1-4374) (enzyme)",binding,binds

# These are yes or no findings as the source states them, for the method shown. Binding seen in cells or lysates may run through a third protein. Here binding means that the protein was enriched with, or labelled near, the bait; the list need not be complete.
